This passage reports binding results from article PMC4561369.

Results are given in words; binding and its absence hold for the method and conditions named. In cells and extracts the contact can be indirect. A yes stands for co-enrichment or nearness to the bait. Other partners may have been found.

The labels stand for the following.
B1: Slc25a3 (protein, UniProt Q8VEM8 46-357)
chain: AVEEYSCEFGSMKYYALCGFGGVLSCGLTHTAVVPLDLVKCRMQVDPQKYKGIFNGFSITLKEDGVRGLAKGWAPTLIGYSMQGLCKFGFYEVFKALYSNILGEENTYLWRTSLYLASSASAEFFADIALAPMEAAKVRIQTQPGYANTLREAVPKMYKEEGLNAFYKGVAPLWMRQIPYTMMKFACFERTVEALYKFVVPKPRSECTKAEQLVVTFVAGYIAGVFCAIVSHPADSVVSVLNKEKGSTASQVLQRLGFRGVWKGLFARIIMIGTLTALQWFIYDSVKVYFRLPRPPPPEMPESLKKKLGLTE
B2: Aldh2 (protein, UniProt P47738 20-519)
chain: SAAATSAVPAPNHQPEVFCNQIFINNEWHDAVSRKTFPTVNPSTGEVICQVAEGNKEDVDKAVKAARAAFQLGSPWRRMDASDRGRLLYRLADLIERDRTYLAALETLDNGKPYVISYLVDLDMVLKCLRYYAGWADKYHGKTIPIDGDFFSYTRHEPVGVCGQIIPWNFPLLMQAWKLGPALATGNVVVMKVAEQTPLTALYVANLIKEAGFPPGVVNIVPGFGPTAGAAIASHEGVDKVAFTGSTEVGHLIQVAAGSSNLKRVTLELGGKSPNIIMSDADMDWAVEQAHFALFFNQGQCCCAGSRTFVQENVYDEFVERSVARAKSRVVGNPFDSRTEQGPQVDETQFKKILGYIKSGQQEGAKLLCGGGAAADRGYFIQPTVFGDVKDGMTIAKEEIFGPVMQILKFKTIEEVVGRANDSKYGLAAAVFTKDLDKANYLSQALQAGTVWINCYDVFGAQSPFGGYKMSGSGRELGEYGLQAYTEVKTVTVKVPQKNS
B3: Copg (protein, UniProt Q9QZE5 1-874)
chain: MLKKFDKKDEESGGGSNPLQHLEKSAVLQEARVFNETPINPRKCAHILTKILYLINQGEHLGTTEATEAFFAMTKLFQSNDPTLRRMCYLTIKEMSCIAEDVIIVTSSLTKDMTGKEDNYRGPAVRALCQITDSTMLQAVERYMKQAIVDKVPSVSSSALVSSLHLLKCSFDVVKRWVNEAQEAASSDNIMVQYHALGLLYHVRKNDRLAVSKMISKFTRHGLKSPFAYCMMIRVASKQLEEEDGSRDSPLFDFIESCLRNKHEMVVYEAASAIVNLPGCSAKELAPAVSVLQLFCSSPKAALRYAAVRTLNKVAMKHPSAVTACNLDLENLVTDSNRSIATLAITTLLKTGSESSIDRLMKQISSFMSEISDEFKVVVVQAISALCQKYPRKHAVLMNFLFTMLREEGGFEYKRAIVDCIISIIEENSESKETGLSHLCEFIEDCEFTVLATRILHLLGQEGPKTNNPSKYIRFIYNRVVLEHEEVRAGAVSALAKFGAQNEEMLPSILVLLKRCVMDDDNEVRDRATFYLNVLEQKQKALNAGYILNGLTVSIPGLEKALQQYTLEPSEKPFDLKSVPLATTPMAEQRPESTATAAVKQPEKVAATRQEIFQEQLAAVPEFQGLGPLFKSSPEPVALTESETEYVIRCTKHTFSDHLVFQFDCTNTLNDQTLENVTVQMEPTEAYEVLSYVPARSLPYNQPGTCYTLVALPTEDPTAVACTFSCVMKFTVKDCDPNTGEIDEEGYEDEYVLEDLEVTVADHIQKVMKVNFEAAWDEVGDEFEKEETFTLSTIKTLEEAVGNIVKFLGMHPCERSDKVPENKNTHTLLLAGVFRGGHDILVRSRLLLLDTVTMQVTARSSEELPVDIILASVG
B4: Fcgr4 (protein, UniProt A0A0B4J1G0 21-249)
chain: GLQKAVVNLDPKWVRVLEEDSVTLRCQGTFSPEDNSIKWFHNESLIPHQDANYVIQSARVKDSGMYRCQTALSTISDPVQLEVHMGWLLLQTTKWLFQEGDPIHLRCHSWQNRPVRKVTYLQNGKGKKYFHENSELLIPKATHNDSGSYFCRGLIGHNNKSSASFRISLGDPGSPSMFPPWHQITFCLLIGLLFAIDTVLYFSVRRGLQSPVADYEEPKIQWSKEPQDK
B5: Pdia6 (protein, UniProt Q922R8 20-440)
chain: LYSSSDDVIELTPSNFNREVIQSDGLWLVEFYAPWCGHCQRLTPEWKKAATALKDVVKVGAVNADKHQSLGGQYGVQGFPTIKIFGANKNKPEDYQGGRTGEAIVDAALSALRQLVKDRLGGRSGGYSSGKQGRGDSSSKKDVVELTDDTFDKNVLDSEDVWMVEFYAPWCGHCKNLEPEWAAAATEVKEQTKGKVKLAAVDATVNQVLASRYGIKGFPTIKIFQKGESPVDYDGGRTRSDIVSRALDLFSDNAPPPELLEIINEDIAKKTCEEHQLCVVAVLPHILDTGAAGRNSYLEVLLKLADKYKKKMWGWLWTEAGAQYELENALGIGGFGYPAMAAINARKMKFALLKGSFSEQGINEFLRELSFGRGSTAPVGGGSFPTITPREPWDGKDGELPVEDDIDLSDVELDDLEKDEL
B6: Dars (protein, UniProt Q922B2 1-501)
chain: MPSTNASRKGQEKPREIVDAAEDYAKERYGISSMIQSQEKPDRVLVRVKDLTVQKADDVVWVRARVHTSRAKGKQCFLVLRQQQFNVQALVAVGDHASKQMVKFAANINKESIIDVEGVVRKVNQKIGSCTQQDVELHVQKIYVISLAEPRLPLQLDDAIRPEVEGEEDGRATVNQDTRLDNRVIDLRTSTSQAIFRLQSGICHLFRETLINKGFVEIQTPKIISAASEGGANVFTVSYFKNNAYLAQSPQLYKQMCICADFEKVFCIGPVFRAEDSNTHRHLTEFVGLDIEMAFNYHYHEVVEEIADTLVQIFKGLQERFQTEIQTVSKQFPCEPFKFLEPTLRLEYCEALAMLREAGVEMDDEEDLSTPNEKLLGRLVKEKYDTDFYVLDKYPLAVRPFYTMPDPRNPKQSNSYDMFMRGEEILSGAQRIHDPQLLTERALHHGIDLEKIKAYIDSFRFGAPPHAGGGIGLERVTMLFLGLHNVRQTSMFPRDPKRLTP
B7: Hadhb (protein, UniProt Q99JY0 35-475)
chain: SAPAVQTKSKKTLAKPNMKNIVVVEGVRIPFLLSGTSYKDLMPHDLARAALSGLLHRTNIPKDVVDYIIFGTVIQEVKTSNVAREAALGAGFSDKTPAHTVTMACISSNQAMTTAVGLIASGQCDVVVAGGVELMSDVPIRHSRNMRKMMLDLNKAKTLGQRLSLLSKFRLNFLSPELPAVAEFSTNETMGHSADRLAAAFAVSRMEQDEYALRSHSLAKKAQDEGHLSDIVPFKVPGKDTVTKDNGIRPSSLEQMAKLKPAFIKPYGTVTAANSSFLTDGASAMLIMSEDRALAMGYKPKAYLRDFIYVSQDPKDQLLLGPTYATPKVLEKAGLTMNDIDAFEFHEAFSGQILANFKAMDSDWFAQNYMGRKTKVGSPPLEKFNIWGGSLSLGHPFGATGCRLVMAAANRLRKDGGQYALVAACAAGGQGHAMIVEAYPK
B8: Hyou1 (protein, UniProt Q9JKR6 33-999)
chain: LAVMSVDLGSESMKVAIVKPGVPMEIVLNKESRRKTPVTVTLKENERFLGDSAAGMAIKNPKATLRYFQHLLGKQADNPHVALYRSRFPEHELIVDPQRQTVRFQISPQLQFSPEEVLGMVLNYSRSLAEDFAEQPIKDAVITVPAFFNQAERRAVLQAARMAGLKVLQLINDNTATALSYGVFRRKDINSTAQNVMFYDMGSGSTVCTIVTYQTVKTKEAGMQPQLQIRGVGFDRTLGGLEMELRLREHLAKLFNEQRKGQKAKDVRENPRAMAKLLREANRLKTVLSANADHMAQIEGLMDDVDFKAKVTRVEFEELCADLFDRVPGPVQQALQSAEMSLDQIEQVILVGGATRVPKVQEVLLKAVGKEELGKNINADEAAAMGAVYQAAALSKAFKVKPFVVRDAVIYPILVEFTREVEEEPGLRSLKHNKRVLFSRMGPYPQRKVITFNRYSHDFNFHINYGDLGFLGPEDLRVFGSQNLTTVKLKGVGESFKKYPDYESKGIKAHFNLDESGVLSLDRVESVFETLVEDSPEEESTLTKLGNTISSLFGGGTSSDAKENGTDAVQEEEESPAEGSKDEPAEQGELKEEAEPPAEETSQPPPSEPKGDAAREGEKPDEKESGDKPEAQKPNEKGQAGPEGAAPAPEEDKKPKPARKQKMVEEIGVELAVLDLPDLPEDELARSVQKLEELTLRDLEKQEREKAANSLEAFIFETQDKLYQPEYQEVSTEEQREEISGKLSATSTWLEDEGFGATTVMLKDKLAELRKLCQGLFFRVEERRKWPERLSALDNLLNHSSIFLKGARLIPEMDQVFTEVEMTTLEKVINDTWAWKNATLAEQAKLPATEKPVLLSKDIEAKMMALDREVQYLLNKAKFTKPRPRPKDKNGTRAEPPLNASAGDQEEKVIPPAGQTEEAKPILEPDKEETGTEPADSEPLELGGPGAGPEQEEQSAGQKRPSKNDEL
B9: Rars (protein, UniProt Q9D0I9 1-660)
chain: MDGLVAQCSARLLQQEREIKALTAEIDRLKNCGCLEASPSLEQLREENLKLKYRLNILRRSLQEERRKPTKNMININSRLQEVFGCAIRAAYPDLENPPLIVTPSQQPKFGDYQCNSAMGISQMLKAKEQKVSPREIAENITKHLPNNKYIDKVEIAGPGFINVHLRKDFVSEQLTSLLVNGVQLPVLGDKEKVIVDFSSPNIAKEMHVGHLRSTIIGESMSRLFEFAGYDVLRLNHVGDWGTQFGMLIAHLQDKFPDYLTVSPPIGDLQAFYKESKKRFDADEEFKKRAYQCVVLLQSKNPDIMKAWNLICDVSREEFKKIYDALDITLIERGESFYQDRMKDIVKEFEDKGFVQVDDGRKIVFVPGCSVPLTIVKSDGGYTYDTSDLAAIKQRLFEEKANKIIYVVDNGQAIHFQTIFAAAQMIGWYDPKVTLVTHVGFGVVLGEDKKKFKTRSGETVRLMDLLEEGLKRSMDKLKEKERDKVLTEEELKAAQTSVAYGCIKYADLSHNRLNDYIFSFDKMLDDRGNTAAYLLYAFTRIRSIARLANIDEAMLQRAARETKIILDHEKEWKLGRCILRFPEILQKILDDLFLHTLCDYIYELATTFTEFYDSCYCVEKDRQTGKVLKVNMWRMLLCEAVAAVMAKGFDILGIKPVQRM
B10: Phgdh (protein, UniProt Q61753 1-533)
chain: MAFANLRKVLISDSLDPCCRKILQDGGLQVVEKQNLSKEELIAELQDCEGLIVRSATKVTADVINAAEKLQVVGRAGTGVDNVDLEAATRKGILVMNTPNGNSLSAAELTCGMIMCLARQIPQATASMKDGKWDRKKFMGTELNGKTLGILGLGRIGREVATRMQSFGMKTVGYDPIISPEVAASFGVQQLPLEEIWPLCDFITVHTPLLPSTTGLLNDSTFAQCKKGVRVVNCARGGIVDEGALLRALQSGQCAGAALDVFTEEPPRDRALVDHENVISCPHLGASTKEAQSRCGEEIAVQFVDMVKGKSLTGVVNAQALTSAFSPHTKPWIGLAEAMGTLMHAWAGSPKGTIQVVTQGTSLKNAGTCLSPAVIVGLLREASKQADVNLVNAKLLVKEAGLNVTTSHNPGVPGEQGSGECLLTVALAGAPYQAVGLVQGTTPMLQMLNGAVFRPEVPLRRGQPLLVFRAQPSDPGMLPTMIGLLAEAGVQLLSYQTSMVSDGEPWHVMGLSSLLPSLETWKQHVLEAFQFCF

This assay has as its target mutant p53 (mutp53) R172H protein of Trp53^R172H/R172H knock-in mice (mouse (endogenous in tissues of Trp53^R172H/R172H mice)) (UniProt P02340). Nature of the assay: affinity purification with mass spectrometry; lysates of thymic lymphomas of Trp53^R172H/R172H mice (n = 3); IP with anti-p53 (FL393) beads, eluted with 0.1 M glycine, bands of a 4–15% SDS gel analysed by LC-MS/MS; normal thymus as control.
Consider B1, for which the binding result is “binds”.

Take B2: the binding entry is on record as “binds”. The entry for B3 is “binds”; for B4 it is “binds”.

Regarding B5, the binding entry is given as “binds”.

In the case of B6, the binding entry was “binds”.

Turning to B7, the binding result is “binds”.

Regarding B8, the binding entry is “binds”. The entry for B9 is “binds”; for B10 it is “binds”.
